Results are given in words; binding and its absence hold for the method and conditions named. In cells and extracts the contact can be indirect. A result given as binding can be weak or reduced; the word gives no strength. For some of these results: Tags and fused reporters may be left off the sequences shown.
T1: Pex28-13xMyc (Saccharomyces cerevisiae) (UniProt P38848)
T1 sequence: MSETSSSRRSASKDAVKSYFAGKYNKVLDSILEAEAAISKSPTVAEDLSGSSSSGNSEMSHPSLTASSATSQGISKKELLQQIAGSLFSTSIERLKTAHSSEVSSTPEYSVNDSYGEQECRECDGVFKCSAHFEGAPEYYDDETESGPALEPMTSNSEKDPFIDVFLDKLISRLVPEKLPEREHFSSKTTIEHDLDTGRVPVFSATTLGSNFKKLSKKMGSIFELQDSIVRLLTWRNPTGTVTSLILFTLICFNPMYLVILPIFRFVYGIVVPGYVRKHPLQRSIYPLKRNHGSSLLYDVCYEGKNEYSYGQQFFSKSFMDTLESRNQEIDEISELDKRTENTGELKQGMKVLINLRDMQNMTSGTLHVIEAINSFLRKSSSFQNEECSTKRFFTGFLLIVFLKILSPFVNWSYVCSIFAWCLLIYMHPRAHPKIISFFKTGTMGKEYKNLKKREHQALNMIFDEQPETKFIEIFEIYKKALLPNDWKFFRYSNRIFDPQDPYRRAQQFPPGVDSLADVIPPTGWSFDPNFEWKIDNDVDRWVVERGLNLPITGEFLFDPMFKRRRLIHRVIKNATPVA

Amino acid sequences for entries named in this document (tags omitted). A change or cut given only in a name is not applied to a line headed by its entry.
UniProt Q03370: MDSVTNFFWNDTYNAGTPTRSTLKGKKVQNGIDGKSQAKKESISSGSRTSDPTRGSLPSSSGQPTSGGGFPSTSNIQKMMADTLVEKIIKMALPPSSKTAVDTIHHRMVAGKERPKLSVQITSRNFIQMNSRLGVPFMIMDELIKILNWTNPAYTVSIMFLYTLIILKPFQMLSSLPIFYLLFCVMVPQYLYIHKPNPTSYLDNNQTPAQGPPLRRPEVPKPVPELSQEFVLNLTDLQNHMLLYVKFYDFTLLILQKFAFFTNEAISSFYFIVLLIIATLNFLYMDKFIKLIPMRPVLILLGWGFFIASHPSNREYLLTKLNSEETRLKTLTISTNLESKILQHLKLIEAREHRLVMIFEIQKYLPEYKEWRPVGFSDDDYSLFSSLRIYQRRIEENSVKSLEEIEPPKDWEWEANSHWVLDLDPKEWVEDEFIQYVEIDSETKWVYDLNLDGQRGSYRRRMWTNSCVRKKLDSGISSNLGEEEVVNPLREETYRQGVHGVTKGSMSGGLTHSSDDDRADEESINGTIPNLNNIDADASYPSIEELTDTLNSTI

T2: Pex32-3xHA (Saccharomyces cerevisiae) (UniProt P38292)
T2 sequence: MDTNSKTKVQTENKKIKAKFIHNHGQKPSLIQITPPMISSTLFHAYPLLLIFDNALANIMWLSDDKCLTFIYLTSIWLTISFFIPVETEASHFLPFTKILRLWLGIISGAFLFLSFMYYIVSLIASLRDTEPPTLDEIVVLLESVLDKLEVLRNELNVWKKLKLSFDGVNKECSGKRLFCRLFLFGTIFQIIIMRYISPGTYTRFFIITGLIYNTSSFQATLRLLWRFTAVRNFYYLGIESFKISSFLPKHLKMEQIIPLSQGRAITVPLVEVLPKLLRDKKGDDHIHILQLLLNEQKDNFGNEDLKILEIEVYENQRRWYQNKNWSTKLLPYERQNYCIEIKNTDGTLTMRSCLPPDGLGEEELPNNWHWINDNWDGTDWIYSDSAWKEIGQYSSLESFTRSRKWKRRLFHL


Columns and labels:
Test in all cases: co-IP
[1] = target: T1, Pex28-13xMyc (Saccharomyces cerevisiae)
[2] = target: T2, Pex32-3xHA (Saccharomyces cerevisiae)
[3] = target: Pex29^DysFΔ (Saccharomyces cerevisiae) (UniProt Q03370)
[4] = target: Pex32^DysFΔ (Saccharomyces cerevisiae) (UniProt P38292)

binding [1]	binding [2]	binding [3]	binding [4]	Molecule
binds	binds	–	–	Pex30^DysFΔ (from UniProt Q06169)
–	–	binds	binds	Pex30 (protein, UniProt Q06169 1-523) MSGNTTNVHETRAKFAETLQPRIGGNTTKVIRAALEKNEAESGVSEDNDNGSLEKVNVATSPLLTSTPPTISKALVKLYPYLILIDEFLNVVTWTGKNIWSSVLMLCLFITTVEYFETLVKYFGHLAIIAILWGYSLLDNYIEGTLSSSPTLEDIALLMNRVSLKSDILLSPMVNLGTQDIQRLLYTTVILSPIYVMITWLLLPPRSLMLMVGMFLLTYHSPWSKVARRLLWKFKIVRLLVFYVTGLDLGGINKDQGIFATVQKQVKKLASTENSNGVLSDSKPIRFTYVLYENQRRWLGIGWKPSMLSYERTPWTDEFLNEAPSPENFHLPEETNTMVWRWVDKTWRLDMTNDGAIQVPNSKARTSADPSPDEGFIYYDNTWKKPSKEDSFSKYTRRRRWVRTAELVKTSDFDESVINSNRNSAIEQKVEENSTNGLTAEQELGSNKQEKDNAKKVGEPTTEETKEFAEASNINEGEFERISSTDEEVLKSRARDRLAKVLDDTEEKEQSNPTIGRDSKKAV

— article doi:10.1101/2025.02.12.637848
